Patent US20250368729A1

Target: murine AA amyloid deposits (in mice with systemic AA amyloidosis, H2/IL-6 transgenic) (mouse)
Assay: pulldown of 125I-labelled peptide with the substrate pellet (correlation plot against 125I-Igp5)

KAQKAQAKQAKQAQKAQKAQAKQAKQ (125I label) [125I-p5]
binding: binds

These are yes or no findings as the source states them, for the method shown. Binding seen in cells or lysates may run through a third protein. Binding calls can cover weak binding; strength is not graded here.
